Measured values published in article PMC9170038, “Crowdsourced RNA design discovers diverse, reversible, efficient, self-contained molecular switches”.
Where a protein sequence is shown, tags need not be part of it.

Target: T1, MS2 coat protein, dlFG mutant del68-81insG (Escherichia phage MS2) (UniProt P03612)
T1 sequence (looked up, limits assumed): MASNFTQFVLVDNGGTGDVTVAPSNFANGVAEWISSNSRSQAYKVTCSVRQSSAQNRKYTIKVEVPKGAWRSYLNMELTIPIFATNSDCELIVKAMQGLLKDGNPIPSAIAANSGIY
Test: binding assay
Settings: 4 mM Mg2+, RNA-MaP array, 100 mM Tris-HCl pH 7.5, 80 mM KCl, 4 mM MgCl2, 0.1 mg/mL BSA, 1 mM DTT, 0.01 mg/mL yeast tRNA, 0.01% Tween-20, protein 1.5 nM to 3 uM, 37 C (Table S3), purified recombinant protein

| Sequence | Kd (no ligand) [nM] | other results |
| --- | --- | --- |
| GACUCGAAUGUAGGAUAUGCUGAGGAAUACUCAGCAGAAGGACAUGAGGAUCACCCAUGUAAAUGAGUGAAUAAUAAACGAGUC [Eterna 6090265 (Exclusion NG 1)] | – | Kd (FMN 200 uM): > 3000 nM |
| UGACAUUGCUCAGAUACCAGACAGGAGGAUCACUCCUGUGCCAACAAGUACAAAAUAAAUGUCCCUUGGCAGCUGAGCAAUGUCU [Eterna 7670674 (Exclusion - Theophylline B)] | – | Kd (no ligand, variant of MS2 control): > 3000 nM |
| UAUGAAUAGCAAGGAUAUUGAUAACAUGAGGAUCACCCAUGUAAUUGAUCGAGUUAGAUCAGUUACAAGAAGGUGCAAUUGAUU [Eterna 5855586 (Same State NG 2)] | > 3000 | – |
| AAAAGGCAUCGUGACAUGAGGAUCACCCAUGUGAUUUGCUCACAGGAUAUCAUGCUCACGGAGCCUGAGAAGGGUGAAAGCUAA [Eterna 6148979 (Same State NG 3)] | – | Kd (FMN 200 uM): > 3000 nM |
| ACUUGCUUGCAGAAGGGUGACAUGAGGAUCACCCAUGUAGCGGGCCGGCGUAAAGUCAGCGCGCCACAGGAUAUGCAGGCCUCG [Eterna 6416943 (Inverted Same State NG 2)] | > 3000 | – |
| GGUUAUAUAACAUGAGGAUCACCCAUGUGAGUGGUCCGAAUAUAGGAUAUCCACACGAGAAGUGUGGAGAAGGAUAAUUUAUUA [Eterna 6133184 (Exclusion NG 3)] | > 3000 | – |
| UUCUUGGCAGGAUAUGCUUUUUUAGACAUGAGGAUCACCCAUGUGUUUAUUUUUUUUUUUGCAGAAGGGCCUUAAU [Eterna 14471 (Exclusion 5)] | > 3000 | – |
| AGCCACUCGAGUGAUCCUCACGAGUGGCUACGAGGACCGGUACGGCCGCCACUCGAAUUAACAUGAGGAUCACCCAUGUAAUCAU [Eterna 7638954 (Same State - Tryptophan A)] | > 3000 | – |
| GUUGGUGUAGAAGGAUAUUGGUGAGGCGUCUUGUACAUGAGGAUCACCCAUGUCAUUCUGCACGCCGAGAAGGUCUGCAAUUGG [Eterna 6148683 (Same State NG 2)] | > 3000 | – |
